Laboratory results: patent publication US20240383873A1, “PESTICIDALLY ACTIVE CYCLIC AMINE COMPOUNDS” (SYNGENTA CROP PROTECTION AG, priority 2021, published 2024)
Some results were stated once for a whole list of compounds, not compound by compound.

Tested on: Tetranychus Urticae (Two-Spotted Spider Mite)
Assay: Tetranychus urticae (two-spotted spider mite): feeding/contact activity
Assay type: in vivo
Details: application rate of 200 ppm; bean leaf discs sprayed; mixed population (mobile stages); 8 days after infestation
Procedure: Example B1: Tetranychus Urticae (Two-Spotted Spider Mite): Feeding/Contact Activity
Bean leaf discs on agar in 24-well microtiter plates were sprayed with aqueous test solutions prepared from 10'000 ppm DMSO stock solutions. After drying the leaf discs were infested with a mite population of mixed ages. The samples were assessed for mortality on mixed population (mobile stages) 8 days after infestation.

Row | SMILES | mortality
1 | CCNC(=O)CN1CCN(C(=O)c2cc(C#N)c(OCc3cc(C(F)(F)F)ccc3F)nc2C(F)(F)F)CC1 [Compound P2.18] | at least 80%
2 | CN(C)S(=O)(=O)N(C)C1CCN(C(=O)c2cc(C#N)c(OCc3cc(C(F)(F)F)ccc3F)nc2C(F)(F)F)CC1 [Compound P1.35] | at least 80%
3 | N#Cc1cc(C(=O)N2CCC(S(N)(=O)=O)CC2)c(C(F)(F)F)nc1OCc1cc(C(F)(F)F)ccc1F [Compound P1.44] | at least 80%
4 | CS(=O)(=O)OC1CCN(C(=O)c2cc(C#N)c(OCc3cc(C(F)(F)F)ccc3F)nc2C(F)F)CC1 [Compound P1.4] | at least 80%
5 | CNS(=O)(=O)C1CCN(C(=O)c2cc(C#N)c(OCc3ccc(Cl)cc3F)nc2C(F)F)CC1 [Compound P1.123] | at least 80%
6 | CCNS(=O)(=O)C1CCN(C(=O)c2cc(C#N)c(OCc3cc(F)c(F)cc3F)nc2C(F)F)CC1 [Compound P1.151] | at least 80%
7 | CNS(=O)(=O)CC1CCN(C(=O)c2cc(C#N)c(OCc3cc(C(F)(F)F)ccc3F)nc2C(F)(F)F)CC1 [Compound P1.48] | at least 80%
8 | CCNS(=O)(=O)C1CCN(C(=O)c2cc(C#N)c(OCc3ccc4nonc4c3)nc2COC)CC1 [Compound P1.150] | at least 80%
9 | CC(=O)N(C)CC1CCN(C(=O)c2cc(C#N)c(OCc3cc(C(F)(F)F)ccc3F)nc2C(F)(F)F)CC1 [Compound P1.43] | at least 80%
10 | CN(C)C(=O)CN1CCN(C(=O)c2cc(C#N)c(OCc3ccc(F)c(F)c3)nc2C(F)F)CC1 [Compound P2.44] | at least 80%
11 | CCNS(=O)(=O)C1CCN(C(=O)c2cc(C#N)c(OCc3cc4c(cc3Cl)OC(F)(F)O4)nc2C(F)F)CC1 [Compound P1.93] | at least 80%
12 | N#Cc1cc(C(=O)N2CCN(CC3(C#N)CC3)CC2)c(C(F)(F)F)nc1OCc1cc(C(F)(F)F)ccc1F [Compound P2.4] | at least 80%
13 | CCN(C)S(=O)(=O)C1CCN(C(=O)c2cc(C#N)c(OCc3ccc4c(c3)OC(F)(F)O4)nc2C)CC1 [Compound P1.108] | at least 80%
14 | CNS(=O)(=O)C1CCN(C(=O)c2cc(C#N)c(OCc3ccc(Cl)cc3F)nc2COC)CC1 [Compound P1.122] | at least 80%
15 | CNS(=O)(=O)C1CCN(C(=O)c2cc(C#N)c(OCc3ccc4c(c3)OC(F)(F)O4)nc2C2CC2)CC1 [Compound P1.133] | at least 80%
16 | Cc1nc(OCc2ccc3c(c2)OC(F)(F)O3)c(C#N)cc1C(=O)N1CCN(CC(=O)N(C)C)CC1 [Compound P2.39] | at least 80%
17 | CNC(=O)N(C)CC1CCN(C(=O)c2cc(C#N)c(OCc3ccc4c(c3)OC(F)(F)O4)nc2C(F)F)CC1 [Compound P1.84] | at least 80%
18 | CCNS(=O)(=O)C1CCN(C(=O)c2cc(C#N)c(OCc3cc(Br)ccc3Cl)nc2C(F)F)CC1 [Compound P1.149] | at least 80%
19 | CCN(C)S(=O)(=O)C1CCN(C(=O)c2cc(C#N)c(OCc3cc(F)c(F)cc3F)nc2C(F)F)CC1 [Compound P1.137] | at least 80%
20 | CN(C)C(=O)CN1CCN(C(=O)c2cc(C#N)c(OCc3cc(Br)ccc3F)nc2C(F)F)CC1 [Compound P2.41] | at least 80%
21 | COCc1nc(OCc2ccc(Cl)cc2F)c(C#N)cc1C(=O)N1CCC(S(=O)(=O)N(C)C)CC1 [Compound P1.115] | at least 80%

Row | SMILES | mortality
22 | CC(C)(C#N)C(=O)N1CCN(C(=O)c2cc(C#N)c(OCc3cc(C(F)(F)F)ccc3F)nc2C(F)F)CC1 [Compound P2.19] | at least 80%
23 | COCc1nc(OCc2cc3c(cc2Cl)OC(F)(F)O3)c(C#N)cc1C(=O)N1CCC(CC(=O)N(C)C)CC1 [Compound P1.104] | at least 80%
24 | CN(C)C(=O)N1CCN(C(=O)c2cc(C#N)c(OCc3ccc4c(c3)OC(F)(F)O4)nc2C(F)F)CC1 [Compound P2.46] | at least 80%
25 | COCC(=O)NC1CCN(C(=O)c2cc(C#N)c(OCc3cc(C(F)(F)F)ccc3F)nc2C(F)(F)F)CC1 [Compound P1.9] | at least 80%
26 | CNS(=O)(=O)CC1CCN(C(=O)c2cc(C#N)c(OCc3ccc4c(c3)OC(F)(F)O4)nc2C(F)F)CC1 [Compound P1.118] | at least 80%
27 | CCN(CC)C(=O)CN1CCN(C(=O)c2cc(C#N)c(OCc3cc(C(F)(F)F)ccc3F)nc2C(F)(F)F)CC1 [Compound P2.23] | at least 80%
28 | N#Cc1cc(C(=O)N2CCC(NS(=O)(=O)C3CC3)CC2)c(C(F)F)nc1OCc1ccc2c(c1)OC(F)(F)O2 [Compound P1.80] | at least 80%
29 | CN(C)C(=O)CC1CCN(C(=O)c2cc(C#N)c(OCc3ccc4c(c3)OC(F)(F)O4)nc2C(F)F)CC1 [Compound P1.91] | at least 80%
30 | N#Cc1cc(C(=O)N2CCC(OCC3(C#N)CC3)CC2)c(C(F)(F)F)nc1OCc1cc(C(F)(F)F)ccc1F [Compound P1.51] | at least 80%
31 | CNS(=O)(=O)C1CCN(C(=O)c2cc(C#N)c(OCc3ccc4nonc4c3)nc2C(F)F)CC1 [Compound P1.152] | at least 80%
32 | COCc1nc(OCc2ccc3c(c2)OC(F)(F)O3)c(C#N)cc1C(=O)N1CCC(S(=O)(=O)N(C)C)CC1 [Compound P1.70] | at least 80%
33 | CCN(C)S(=O)(=O)C1CCN(C(=O)c2cc(C#N)c(OCc3ccc(Cl)cc3F)nc2C(F)F)CC1 [Compound P1.145] | at least 80%
34 | CN(C)S(=O)(=O)C1CCN(C(=O)c2cc(C#N)c(OCc3cc(C(F)(F)F)ccc3F)nc2C(F)(F)F)CC1 [Compound P1.2] | at least 80%
35 | CS(=O)(=O)COC1CCN(C(=O)c2cc(C#N)c(OCc3cc(C(F)(F)F)ccc3F)nc2C(F)(F)F)CC1 [Compound P1.54] | at least 80%
36 | CNC(=O)COC1CCN(C(=O)c2cc(C#N)c(OCc3ccc4c(c3)OC(F)(F)O4)nc2COC)CC1 [Compound P1.101] | at least 80%
37 | CNS(=O)(=O)C1CCN(C(=O)c2cc(C#N)c(OCc3ccc4nonc4c3)nc2COC)CC1 [Compound P1.130] | at least 80%
38 | CCN(C)S(=O)(=O)C1CCN(C(=O)c2cc(C#N)c(OCc3ccc(Cl)cc3F)nc2COC)CC1 [Compound P1.161] | at least 80%
39 | N#Cc1cc(C(=O)N2CCC(CC(N)=O)CC2)c(C(F)(F)F)nc1OCc1cc(C(F)(F)F)ccc1F [Compound P1.56] | at least 80%
40 | CN(C)C(=O)CN1CCN(C(=O)c2cc(C#N)c(OCc3ccc4c(c3)OC(F)(F)O4)nc2C(F)F)CC1 [Compound P2.33] | at least 80%
41 | CCN(C)S(=O)(=O)C1CCN(C(=O)c2cc(C#N)c(OCc3cc4c(cc3Cl)OC(F)(F)O4)nc2COC)CC1 [Compound P1.102] | at least 80%
42 | CCNS(=O)(=O)C1CCN(C(=O)c2cc(C#N)c(OCc3ccc(Br)c(F)c3)nc2C(F)F)CC1 [Compound P1.162] | at least 80%

Row | SMILES | mortality
43 | CNS(=O)(=O)C1CCN(C(=O)c2cc(C#N)c(OCc3ccc4c(c3)OC(F)(F)O4)nc2COC)CC1 [Compound P1.111] | at least 80%
44 | CC(=O)NCC1CCN(C(=O)c2cc(C#N)c(OCc3ccc4c(c3)OC(F)(F)O4)nc2C(F)F)CC1 [Compound P1.78] | at least 80%
45 | CN(C)C(=O)CN1CCN(C(=O)c2cc(C#N)c(OCc3ccc(Br)cc3)nc2C(F)F)CC1 [Compound P2.37] | at least 80%
46 | CNC(=O)NC1CCN(C(=O)c2cc(C#N)c(OCc3cc(C(F)(F)F)ccc3F)nc2C(F)(F)F)CC1 [Compound P1.13] | at least 80%
47 | COCc1nc(OCc2cc(Br)ccc2Cl)c(C#N)cc1C(=O)N1CCC(S(=O)(=O)N(C)C)CC1 [Compound P1.114] | at least 80%
48 | Cc1nc(OCc2cc(C(F)(F)F)ccc2F)c(C#N)cc1C(=O)N1CCN(C(=O)C2(C#N)CC2)CC1 [Compound P2.20] | at least 80%
49 | CCNS(=O)(=O)C1CCN(C(=O)c2cc(C#N)c(OCc3cc(Cl)ccc3F)nc2COC)CC1 [Compound P1.154] | at least 80%
50 | Cc1nc(OCc2cc(C(F)(F)F)ccc2F)c(C#N)cc1C(=O)N1CCC(S(=O)(=O)N(C)C)CC1 [Compound P1.5] | at least 80%
51 | CN(C)S(=O)(=O)C1CCN(C(=O)c2cc(C#N)c(OCc3ccc(OC(F)(F)F)cc3)nc2C(F)(F)F)CC1 [Compound P1.26] | at least 80%
52 | CCC(=O)N(C)CC1CCN(C(=O)c2cc(C#N)c(OCc3ccc4c(c3)OC(F)(F)O4)nc2COC)CC1 [Compound P1.69] | at least 80%
53 | CCNS(=O)(=O)C1CCN(C(=O)c2cc(C#N)c(OCc3ccc4c(c3)OC(F)(F)O4)nc2C(F)F)CC1 [Compound P1.73] | at least 80%
54 | CN(C)C(=O)NCC1CCN(C(=O)c2cc(C#N)c(OCc3ccc4c(c3)OC(F)(F)O4)nc2C(F)F)CC1 [Compound P1.85] | at least 80%
55 | CNS(=O)(=O)C1CCN(C(=O)c2cc(C#N)c(OCc3cc(C(F)(F)F)ccc3F)nc2C(F)F)CC1 [Compound P1.8] | at least 80%
56 | CNS(=O)(=O)NC1CCN(C(=O)c2cc(C#N)c(OCc3cc(C(F)(F)F)ccc3F)nc2C(F)(F)F)CC1 [Compound P1.29] | at least 80%
57 | N#Cc1cc(C(=O)N2CCN(C(=O)C3(C#N)CC3)CC2)c(C(F)F)nc1OCc1cc(C(F)(F)F)ccc1F [Compound P2.21] | at least 80%
58 | COCc1nc(OCc2cc(Cl)ccc2F)c(C#N)cc1C(=O)N1CCC(S(=O)(=O)N(C)C)CC1 [Compound P1.112] | at least 80%
59 | CNS(=O)(=O)C1CCN(C(=O)c2cc(C#N)c(OCc3ccc4c(c3)OC(F)(F)O4)nc2C)CC1 [Compound P1.167] | at least 80%
60 | CCN(C)S(=O)(=O)C1CCN(C(=O)c2cc(C#N)c(OCc3cc(Br)ccc3Cl)nc2COC)CC1 [Compound P1.141] | at least 80%
61 | CNC(=O)C(C)(C)N1CCN(C(=O)c2cc(C#N)c(OCc3cc(C(F)(F)F)ccc3F)nc2C(F)(F)F)CC1 [Compound P2.13] | at least 80%
